± gives the standard deviation of the averaged measurements. Repeats in this data set agree poorly, so a single value says little.
Compound: CC[C@@H](C)Nc1cc(C(=O)N[C@H]2C[C@H]3CC[C@@H](C2)N3c2ccc(C(=O)C3CC3)cn2)c(C)cc1C(N)=O [XL888]
Assay: phosphopeptide melting temperature shift (XL888 minus DMSO); higher = stabilised by drug treatment
Settings: 100 µM; treatment time 2 h; layout: intact cells; SK-Mel 28
Procedure: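 Phospho-TPP in intact SK-Mel 28 cells treated with 100 uM XL888 or DMSO for 2 h, heated at 10 temperatures (37-67 C) for 3 min, soluble fraction TMT10plex-labelled and TiO2 phospho-enriched. Melting curves were fitted per phosphopeptide; the value is the melting point difference (drug minus vehicle) in each of two biological replicates.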

Protein sequences, listed by entry. Tags and fused reporters are not part of them. Lines headed by an entry give the natural chain unless they say otherwise; changes in a name come on top.
UniProt Q08J23, whole entry, looked up: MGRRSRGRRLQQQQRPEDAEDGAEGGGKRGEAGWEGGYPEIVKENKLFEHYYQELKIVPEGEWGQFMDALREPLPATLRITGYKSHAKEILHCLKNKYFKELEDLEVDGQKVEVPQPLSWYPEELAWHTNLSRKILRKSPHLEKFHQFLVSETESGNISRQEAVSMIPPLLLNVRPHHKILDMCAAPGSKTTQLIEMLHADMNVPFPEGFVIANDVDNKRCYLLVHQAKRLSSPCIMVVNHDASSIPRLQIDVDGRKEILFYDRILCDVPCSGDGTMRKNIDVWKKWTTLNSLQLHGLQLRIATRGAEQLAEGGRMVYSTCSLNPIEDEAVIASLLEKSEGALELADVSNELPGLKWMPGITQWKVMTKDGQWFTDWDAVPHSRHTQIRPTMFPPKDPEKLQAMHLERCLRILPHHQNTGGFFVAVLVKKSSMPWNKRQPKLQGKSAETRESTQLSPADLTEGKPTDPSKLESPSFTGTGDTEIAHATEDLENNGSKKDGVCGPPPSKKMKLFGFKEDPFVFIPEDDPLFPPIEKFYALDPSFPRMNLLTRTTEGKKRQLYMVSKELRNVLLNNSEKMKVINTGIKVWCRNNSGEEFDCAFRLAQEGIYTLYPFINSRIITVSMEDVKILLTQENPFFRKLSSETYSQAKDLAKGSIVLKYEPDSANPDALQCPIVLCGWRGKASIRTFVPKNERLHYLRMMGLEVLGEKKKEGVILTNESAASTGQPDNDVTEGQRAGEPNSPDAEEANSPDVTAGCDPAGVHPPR
UniProt Q9H1E3: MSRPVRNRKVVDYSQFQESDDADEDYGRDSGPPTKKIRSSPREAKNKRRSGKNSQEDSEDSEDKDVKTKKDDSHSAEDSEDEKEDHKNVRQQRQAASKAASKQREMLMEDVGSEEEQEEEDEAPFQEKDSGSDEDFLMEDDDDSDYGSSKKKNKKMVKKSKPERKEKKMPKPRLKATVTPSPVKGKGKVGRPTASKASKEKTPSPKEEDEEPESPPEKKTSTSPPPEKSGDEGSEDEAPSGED
UniProt Q7Z417: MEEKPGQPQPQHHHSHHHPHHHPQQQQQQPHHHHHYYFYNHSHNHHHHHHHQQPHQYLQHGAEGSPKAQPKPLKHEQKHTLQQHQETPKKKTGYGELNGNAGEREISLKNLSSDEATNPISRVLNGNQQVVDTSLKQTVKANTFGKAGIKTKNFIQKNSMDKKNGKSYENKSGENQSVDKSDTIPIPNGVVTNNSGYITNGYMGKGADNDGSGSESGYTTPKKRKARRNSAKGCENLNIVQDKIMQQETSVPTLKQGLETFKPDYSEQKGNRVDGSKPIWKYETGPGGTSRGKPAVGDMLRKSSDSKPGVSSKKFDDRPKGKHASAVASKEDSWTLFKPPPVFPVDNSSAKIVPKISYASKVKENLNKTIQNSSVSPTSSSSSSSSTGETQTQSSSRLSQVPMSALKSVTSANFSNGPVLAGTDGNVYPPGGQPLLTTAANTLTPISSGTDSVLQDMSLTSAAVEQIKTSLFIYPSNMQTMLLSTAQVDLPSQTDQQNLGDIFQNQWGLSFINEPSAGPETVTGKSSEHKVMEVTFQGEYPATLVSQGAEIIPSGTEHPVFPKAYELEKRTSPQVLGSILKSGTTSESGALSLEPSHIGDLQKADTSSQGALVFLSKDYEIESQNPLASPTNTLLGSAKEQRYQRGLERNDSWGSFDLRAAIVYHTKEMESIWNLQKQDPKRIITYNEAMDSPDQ
UniProt P22059, whole entry, looked up: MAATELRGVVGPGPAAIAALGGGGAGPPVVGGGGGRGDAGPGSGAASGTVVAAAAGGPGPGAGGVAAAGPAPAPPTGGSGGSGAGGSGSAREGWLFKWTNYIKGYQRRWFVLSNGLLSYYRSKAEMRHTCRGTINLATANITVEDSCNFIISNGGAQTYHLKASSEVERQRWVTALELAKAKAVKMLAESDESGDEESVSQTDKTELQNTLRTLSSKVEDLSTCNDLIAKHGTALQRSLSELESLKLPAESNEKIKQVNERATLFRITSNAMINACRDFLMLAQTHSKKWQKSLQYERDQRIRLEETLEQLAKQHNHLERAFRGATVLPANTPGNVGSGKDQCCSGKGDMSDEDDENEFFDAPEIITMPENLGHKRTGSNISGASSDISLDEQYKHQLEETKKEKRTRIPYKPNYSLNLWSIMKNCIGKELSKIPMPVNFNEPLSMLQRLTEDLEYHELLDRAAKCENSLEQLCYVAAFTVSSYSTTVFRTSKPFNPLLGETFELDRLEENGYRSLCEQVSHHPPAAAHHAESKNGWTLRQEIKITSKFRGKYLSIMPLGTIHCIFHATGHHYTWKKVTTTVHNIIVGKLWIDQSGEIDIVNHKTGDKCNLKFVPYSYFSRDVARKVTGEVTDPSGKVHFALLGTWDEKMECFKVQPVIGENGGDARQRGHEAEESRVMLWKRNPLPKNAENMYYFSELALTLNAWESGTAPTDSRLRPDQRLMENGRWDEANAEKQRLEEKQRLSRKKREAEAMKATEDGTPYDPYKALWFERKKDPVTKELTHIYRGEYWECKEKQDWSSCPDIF
UniProt Q9BXB4: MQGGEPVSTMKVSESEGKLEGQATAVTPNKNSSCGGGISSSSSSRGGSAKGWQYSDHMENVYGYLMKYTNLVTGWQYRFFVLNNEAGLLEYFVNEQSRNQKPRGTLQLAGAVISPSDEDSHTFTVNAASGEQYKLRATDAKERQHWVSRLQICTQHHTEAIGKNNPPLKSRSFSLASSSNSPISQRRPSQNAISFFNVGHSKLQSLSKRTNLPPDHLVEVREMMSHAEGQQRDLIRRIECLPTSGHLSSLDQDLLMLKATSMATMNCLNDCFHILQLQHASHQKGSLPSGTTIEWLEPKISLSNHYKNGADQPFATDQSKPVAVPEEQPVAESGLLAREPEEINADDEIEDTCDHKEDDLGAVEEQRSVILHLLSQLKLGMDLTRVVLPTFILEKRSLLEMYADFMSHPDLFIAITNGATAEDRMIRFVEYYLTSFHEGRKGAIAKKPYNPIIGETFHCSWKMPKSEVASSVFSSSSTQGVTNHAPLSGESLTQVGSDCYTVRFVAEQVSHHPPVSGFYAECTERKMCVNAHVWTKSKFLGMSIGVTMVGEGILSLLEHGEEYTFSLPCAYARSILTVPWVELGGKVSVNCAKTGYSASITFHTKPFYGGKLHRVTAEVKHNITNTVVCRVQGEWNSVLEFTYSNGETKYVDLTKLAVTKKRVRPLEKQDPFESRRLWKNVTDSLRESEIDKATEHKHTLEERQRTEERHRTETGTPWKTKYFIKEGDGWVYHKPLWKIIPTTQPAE
UniProt Q96FW1, whole entry: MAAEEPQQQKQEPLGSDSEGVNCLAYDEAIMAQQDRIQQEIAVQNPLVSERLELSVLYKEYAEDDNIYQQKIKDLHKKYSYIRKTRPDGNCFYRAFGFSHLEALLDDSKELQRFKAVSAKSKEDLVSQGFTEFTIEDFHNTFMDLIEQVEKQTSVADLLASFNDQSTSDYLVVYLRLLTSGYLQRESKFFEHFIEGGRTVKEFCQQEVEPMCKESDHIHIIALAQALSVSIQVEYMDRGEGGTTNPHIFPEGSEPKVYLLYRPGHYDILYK
UniProt Q9UNF0: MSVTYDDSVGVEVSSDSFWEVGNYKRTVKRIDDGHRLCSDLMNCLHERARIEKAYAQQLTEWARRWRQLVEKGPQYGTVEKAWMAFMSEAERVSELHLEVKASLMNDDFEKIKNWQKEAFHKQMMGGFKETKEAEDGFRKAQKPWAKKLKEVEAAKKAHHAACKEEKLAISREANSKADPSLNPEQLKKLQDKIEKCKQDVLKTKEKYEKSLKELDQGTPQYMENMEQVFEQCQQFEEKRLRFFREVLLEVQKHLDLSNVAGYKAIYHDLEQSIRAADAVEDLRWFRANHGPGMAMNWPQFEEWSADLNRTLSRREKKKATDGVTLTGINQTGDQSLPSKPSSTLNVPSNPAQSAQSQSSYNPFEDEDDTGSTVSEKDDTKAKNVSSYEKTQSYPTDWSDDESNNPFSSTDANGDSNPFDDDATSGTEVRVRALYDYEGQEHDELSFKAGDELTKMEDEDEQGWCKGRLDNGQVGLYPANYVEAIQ
UniProt Q13177, whole entry, looked up: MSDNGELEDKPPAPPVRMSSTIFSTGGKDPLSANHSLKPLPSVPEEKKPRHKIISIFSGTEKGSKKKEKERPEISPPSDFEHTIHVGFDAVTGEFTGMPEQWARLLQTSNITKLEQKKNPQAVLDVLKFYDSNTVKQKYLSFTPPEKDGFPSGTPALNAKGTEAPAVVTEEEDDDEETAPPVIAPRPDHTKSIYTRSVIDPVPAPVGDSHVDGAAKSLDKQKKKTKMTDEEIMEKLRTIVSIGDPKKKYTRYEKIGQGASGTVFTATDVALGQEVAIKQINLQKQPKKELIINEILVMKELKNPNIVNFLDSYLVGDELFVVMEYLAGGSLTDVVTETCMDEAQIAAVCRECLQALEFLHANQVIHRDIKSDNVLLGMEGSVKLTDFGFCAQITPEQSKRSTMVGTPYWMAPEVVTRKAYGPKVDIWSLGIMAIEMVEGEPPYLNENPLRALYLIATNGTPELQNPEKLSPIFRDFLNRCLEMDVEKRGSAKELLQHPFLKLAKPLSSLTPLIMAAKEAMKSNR
UniProt O96013: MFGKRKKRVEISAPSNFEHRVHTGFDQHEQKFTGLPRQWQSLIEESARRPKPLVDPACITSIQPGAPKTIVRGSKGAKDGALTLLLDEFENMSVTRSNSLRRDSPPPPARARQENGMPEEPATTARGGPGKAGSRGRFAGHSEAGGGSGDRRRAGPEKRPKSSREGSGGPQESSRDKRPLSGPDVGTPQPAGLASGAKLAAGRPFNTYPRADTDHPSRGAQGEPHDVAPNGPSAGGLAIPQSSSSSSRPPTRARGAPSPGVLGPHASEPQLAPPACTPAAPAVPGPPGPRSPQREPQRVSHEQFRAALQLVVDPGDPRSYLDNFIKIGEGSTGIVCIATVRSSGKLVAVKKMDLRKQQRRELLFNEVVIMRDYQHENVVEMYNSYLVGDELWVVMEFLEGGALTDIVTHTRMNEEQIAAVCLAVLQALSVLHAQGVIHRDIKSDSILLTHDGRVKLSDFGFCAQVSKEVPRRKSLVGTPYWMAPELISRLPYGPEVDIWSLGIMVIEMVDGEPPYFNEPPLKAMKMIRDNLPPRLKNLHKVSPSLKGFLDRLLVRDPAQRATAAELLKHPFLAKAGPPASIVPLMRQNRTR
UniProt P40425: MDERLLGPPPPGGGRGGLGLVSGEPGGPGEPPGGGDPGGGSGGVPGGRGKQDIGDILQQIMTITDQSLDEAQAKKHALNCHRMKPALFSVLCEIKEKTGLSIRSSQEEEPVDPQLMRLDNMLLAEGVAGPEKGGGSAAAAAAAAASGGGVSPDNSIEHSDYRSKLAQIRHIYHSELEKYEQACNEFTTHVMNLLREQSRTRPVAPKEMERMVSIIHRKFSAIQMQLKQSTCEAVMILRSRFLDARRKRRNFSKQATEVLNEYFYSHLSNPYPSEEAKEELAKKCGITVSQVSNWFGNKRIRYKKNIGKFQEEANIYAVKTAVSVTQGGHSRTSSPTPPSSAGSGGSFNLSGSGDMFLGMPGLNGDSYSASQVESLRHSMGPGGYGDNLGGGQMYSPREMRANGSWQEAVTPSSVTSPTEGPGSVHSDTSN
UniProt Q07002: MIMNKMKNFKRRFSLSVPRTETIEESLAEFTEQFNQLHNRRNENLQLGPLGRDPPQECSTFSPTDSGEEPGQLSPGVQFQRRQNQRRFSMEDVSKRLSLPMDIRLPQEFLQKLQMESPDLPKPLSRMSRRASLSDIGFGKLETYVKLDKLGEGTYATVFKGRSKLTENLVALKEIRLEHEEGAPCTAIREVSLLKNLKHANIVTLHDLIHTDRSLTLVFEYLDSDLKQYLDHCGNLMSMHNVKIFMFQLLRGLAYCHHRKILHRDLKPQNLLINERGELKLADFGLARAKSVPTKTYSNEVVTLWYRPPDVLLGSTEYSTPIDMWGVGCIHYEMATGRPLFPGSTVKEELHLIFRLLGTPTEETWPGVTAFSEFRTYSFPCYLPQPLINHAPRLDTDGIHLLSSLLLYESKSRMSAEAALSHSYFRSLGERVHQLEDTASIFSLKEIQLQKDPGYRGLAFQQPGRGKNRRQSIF
UniProt O60825: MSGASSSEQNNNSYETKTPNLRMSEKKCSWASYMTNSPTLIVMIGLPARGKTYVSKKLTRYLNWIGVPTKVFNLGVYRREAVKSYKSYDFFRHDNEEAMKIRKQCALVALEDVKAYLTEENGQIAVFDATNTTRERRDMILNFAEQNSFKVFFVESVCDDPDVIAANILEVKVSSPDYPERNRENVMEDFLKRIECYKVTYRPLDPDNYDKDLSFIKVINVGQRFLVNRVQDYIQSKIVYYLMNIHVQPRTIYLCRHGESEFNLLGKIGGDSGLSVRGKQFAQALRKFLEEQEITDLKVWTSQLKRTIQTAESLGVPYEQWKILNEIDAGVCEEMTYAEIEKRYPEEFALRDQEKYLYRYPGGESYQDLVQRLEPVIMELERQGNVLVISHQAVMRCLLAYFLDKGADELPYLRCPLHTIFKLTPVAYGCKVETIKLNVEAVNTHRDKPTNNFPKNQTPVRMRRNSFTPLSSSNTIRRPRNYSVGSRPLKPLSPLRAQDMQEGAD

| Target | phosphopeptide melting temperature shift [°C] |
| --- | --- |
| NRBP2 phosphosite_22 (phosphosite position: 22) (UniProt Q9NSY0) | 3.05 ± 0.67 |
| NSUN2 phosphosite_456 (phosphosite position: 456) (UniProt Q08J23) | 0.0738 |
| NUCKS1 phosphosite_113 (phosphosite position: 113) (UniProt Q9H1E3) | -4.9 |
| NUFIP2 phosphosite_212 (phosphosite position: 212) (UniProt Q7Z417) | 1.44 ± 1.3 |
| NUFIP2 phosphosite_629 (phosphosite position: 629) (UniProt Q7Z417) | 1.56 ± 0.61 |
| NUFIP2 phosphosite_652 (phosphosite position: 652) (UniProt Q7Z417) | -0.864 |
| NUP50 phosphosite_330 (phosphosite position: 330) (UniProt Q9UKX7) | 0.169 |
| NUP88 phosphosite_517 (phosphosite position: 517) (UniProt Q99567) | -0.59 |
| NUP160 phosphosite_1157 (phosphosite position: 1157) (UniProt Q12769) | 0.979 ± 1 |
| OSBP phosphosite_351 (phosphosite position: 351) (UniProt P22059) | -1.15 ± 0.2 |
| OSBP phosphosite_379 (phosphosite position: 379) (UniProt P22059) | 1.57 |
| OSBP phosphosite_382 (phosphosite position: 382) (UniProt P22059) | 1.57 |
| OSBP phosphosite_385 (phosphosite position: 385) (UniProt P22059) | 1.1 |
| OSBPL11 phosphosite_189 (phosphosite position: 189) (UniProt Q9BXB4) | 0.754 |
| OSTF1 phosphosite_213 (phosphosite position: 213) (UniProt Q92882) | -0.289 ± 2.1 |
| OTUB1 phosphosite_16 (phosphosite position: 16) (UniProt Q96FW1) | 1.06 |
| PACSIN2 phosphosite_311 (phosphosite position: 311) (UniProt Q9UNF0) | 1.81 |
| PACSIN2 phosphosite_313 (phosphosite position: 313) (UniProt Q9UNF0) | 4.57 |

| Target | phosphopeptide melting temperature shift [°C] |
| --- | --- |
| PACSIN2 phosphosite_372 (phosphosite position: 372) (UniProt Q9UNF0) | 1.87 ± 0.31 |
| PACSIN2 phosphosite_375 (phosphosite position: 375) (UniProt Q9UNF0) | 0.999 |
| PACSIN2 phosphosite_387 (phosphosite position: 387) (UniProt Q9UNF0) | -0.497 |
| PAK2 phosphosite_141 (phosphosite position: 141) (UniProt Q13177) | 0.989 ± 0.6 |
| PAK2 phosphosite_169 (phosphosite position: 169) (UniProt Q13177) | 0.358 ± 1.4 |
| PAK4 phosphosite_181 (phosphosite position: 181) (UniProt O96013) | -0.749 |
| PARP4 phosphosite_1335 (phosphosite position: 1335) (UniProt Q9UKK3) | 0.555 |
| PBX2 phosphosite_330 (phosphosite position: 330) (UniProt P40425) | -0.91 |
| PCIF1 phosphosite_19 (phosphosite position: 19) (UniProt Q9H4Z3) | 0.355 |
| PCTK3 phosphosite_87 (phosphosite position: 87) (UniProt Q07002) | 0.411 |
| PCYT1A phosphosite_315 (phosphosite position: 315) (UniProt P49585) | -0.74 |
| PCYT1A phosphosite_319 (phosphosite position: 319) (UniProt P49585) | 0.639 |
| PDLIM5 phosphosite_228 (phosphosite position: 228) (UniProt Q96HC4) | 0.542 |
| PEBP1 phosphosite_52 (phosphosite position: 52) (UniProt P30086) | 2.1 |
| PFKFB2 phosphosite_466 (phosphosite position: 466) (UniProt O60825) | 0.91 |
| PFKP phosphosite_386 (phosphosite position: 386) (UniProt Q01813) | 0.348 |
| PGM3 phosphosite_64 (phosphosite position: 64) (UniProt O95394) | 1.15 ± 0.43 |
| PI4K2A phosphosite_47 (phosphosite position: 47) (UniProt Q9BTU6) | 2.41 |

Part of the list above, comma-delimited.
Target,phosphopeptide melting temperature shift [°C]
PDLIM5 phosphosite_228 (phosphosite position: 228) (UniProt Q96HC4),0.542
PEBP1 phosphosite_52 (phosphosite position: 52) (UniProt P30086),2.1

From the supplement of paper PMC5836539
